Source: article PMC12578639

Key:
[1] = molecular target: His6-ThsB1 (Sau–Thoeris ThsB1 with an N-terminal hexahistidyl tag) (Staphylococcus aureus 08BA02176); assay: pull-down; cobalt affinity resin on lysates of staphylococci with Mhp (text: overexpressed from pMhp; legend: infected with Φ80α-vir) and either His6-ThsB1 or ThsB2-His6, not both; Coomassie SDS–PAGE
[2] = molecular target: His6-ThsB1 (Sau–Thoeris ThsB1 with an N-terminal hexahistidyl tag) (Staphylococcus aureus 08BA02176); assay: native gel or EMSA; native PAGE of purified ThsB1, ThsB2 and Mhp mixed together at different molar ratios, with NAD+; complex only at 1:1:1; both purified
[3] = molecular target: Seq–ThsB1-His6 (Streptococcus equinis CNU77-23 (also printed S. equinus CNU 77-23)); assay: pull-down; cobalt affinity resin on cytoplasmic extracts of staphylococci expressing His6-tagged Seq–ThsB1 or Seq–ThsB2 with the other Seq–ThsB, with or without overexpression of Mhp(Φ80α); Coomassie SDS–PAGE
[4] = molecular target: His6-tagged Seq–ThsB2 (Streptococcus equinis CNU77-23 (also printed S. equinus CNU 77-23)); assay: as above
[5] = molecular target: His6-ThsB1 (Sau–Thoeris ThsB1 with an N-terminal hexahistidyl tag) (Staphylococcus aureus 08BA02176); assay: pull-down; cobalt affinity resin on lysates of cells expressing His6-ThsB1 or ThsB2-His6, the 3× Flag-tagged other sensor, and wild type, V273A or W84K Mhp from the pMhp plasmid; Coomassie SDS–PAGE

Measured: binding

B1: Major head protein (Mhp) of phage Φ80α, gp47 (protein, UniProt A4ZFB3 15-324)
chain: ASNNVKPQVFNPDNVMMHEKKDGTLMNEFTTPILQEVMENSKIMQLGKYEPMEGTEKKFTFWADKPGAYWVGEGQKIETSKATWVNATMRAFKLGVILPVTKEFLNYTYSQFFEEMKPMIAEAFYKKFDEAGILNQGNNPFGKSIAQSIEKTNKVIKGDFTQDNIIDLEALLEDDELEANAFISKTQNRSLLRKIVDPETKERIYDRNSDSLDGLPVVNLKSSNLKRGELITGDFDKLIYGIPQLIEYKIDETAQLSTVKNEDGTPVNLFEQDMVALRATMHVALHIADDKAFAKLVPADKRTDSVPGEV
binds: all assays above

Results are given in words; binding and its absence hold for the method and conditions named. Binding calls can cover weak binding; strength is not graded here. For some assays here: Binding seen in cells or lysates may run through a third protein.
